Values from PubChem BioAssay AID686943 (Drosophila RNAi Screening Center, 2013).
In all, the deposit lists about 23,000 reagents; shown is an unselected part of those that have a named target and a result. 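Extra replicates exist only for a retested subset of genes; insulin dose and duration not given; both raised and lowered dpERK matter.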 Further read-outs or replicates are left out here. Not given: the amount of reagent, the time to read-out.

- Purpose: 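Search across the genome for regulators of signalling from receptor tyrosine kinase to ERK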 (primary screen)
- System: Drosophila S2R+ haemocyte-like cells expressing YFP-tagged ERK (Rolled)
- Reagent: long dsRNA against Drosophila genes
- Challenge: insulin stimulation versus unstimulated cells; dose and duration not given
- Read-out: 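Antibody staining for doubly phosphorylated ERK divided by ERK-YFP signal, as plate z-scores, in insulin-treated and untreated cells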
- Scale: replicate 1, z-score of dpERK with insulin and replicate 2, z-score of dpERK with insulin: higher = more active ERK per ERK-YFP after insulin; replicate 1, z-score of dpERK under basal conditions: higher = more basal active ERK per ERK-YFP

target,amplicon,"replicate 1, z-score of dpERK with insulin","replicate 2, z-score of dpERK with insulin","replicate 1, z-score of dpERK under basal conditions"
nero,DRSC15432,0,-0.23,-0.19
sstn,DRSC10753,-0.1,0.06,-0.71
CG3698,DRSC11749,-0.56,-0.84,-0.71
Polr2B,DRSC16831,6.49,1.48,
CG11588,DRSC09145,-0.23,0.11,-0.57
CG11588,DRSC09846,0.64,1.17,-0.29
CG13404,DRSC19536,0.32,-0.05,-0.16
ric8a,DRSC18093,-0.16,-0.08,-0.11
RPA3,DRSC19658,-0.24,-0.19,0.01
Oxp,DRSC06712,-0.11,-0.44,0.08
IFT57,DRSC00720,-0.1,0.32,0.34
AIMP2,DRSC09877,-0.17,0.71,0.6
dysf,DRSC14529,0.26,-0.18,0.82
dysf,DRSC14895,-2.71,-0.08,1.3
dysf,DRSC14896,0.08,0.29,0.34
dysf,DRSC14897,-0.77,-3.06,-3.32
Cyp6u1,DRSC05015,0.63,0.9,0.35
CG33769,DRSC11716,0.76,0.32,0.4
CG8086,DRSC03078,0.6,0.04,-0.17
CG8086,DRSC03079,0.29,0.28,-0.43
amos,DRSC03484,-0.05,-0.57,-0.09
sick,DRSC02090,1.19,0.37,1.62
sick,DRSC02300,-0.26,-0.03,1.93
sick,DRSC02301,0.07,-0.6,-1.64
sick,DRSC02302,0.08,-0.43,0.03
sick,DRSC02303,-1.24,-3.35,0.23
sick,DRSC02306,-1.71,0.63,1.26
Cep135,DRSC09345,0.7,-0.88,-2.11
Cep135,DRSC10244,-0.37,-0.17,0.39
CG32228,DRSC22296,0.08,0.58,-1.09
COX5B,DRSC02115,-0.34,0.24,-0.33
RpL7,DRSC03417,-3.19,-0.87,-3.57
CG5708,DRSC02881,-0.1,0.4,0.24
fd3F,DRSC17843,-3.45,-2.19,-2.54
CG6470,DRSC19994,-0.33,-0.25,-1.31
Lcp65Ag3,DRSC10345,0.47,0.93,-0.29
Bx42,DRSC17743,-2.55,1.86,-0.93
Taz,DRSC07704,0.2,0.25,-1.41
Taz,DRSC22625,0.34,-0.53,1.01
CG4301,DRSC19886,-0.75,-0.36,1.19
CG11983,DRSC14458,-0.42,-0.11,0.26
Jasper,DRSC16352,1.73,0.6,0.1
CtBP,DRSC16617,-1.55,-0.95,0.36
CG9801,DRSC16568,-0.15,-0.15,-0.38
CG12605,DRSC08286,2.07,1.52,0.62
CG31706,DRSC22704,0.06,0.16,-0.98
CG6138,DRSC02933,0.01,-0.29,-0.47
crok,DRSC02593,0.68,0.92,0.28
crok,DRSC21349,0.71,-0.55,-0.3
CG32537,DRSC20073,0.49,0.79,0.93
Or65c,DRSC21312,0.35,1.5,1.8
RpS3,DRSC16838,0.61,-0.23,-2.16
BicC,DRSC02005,-1.43,-0.65,0.92
CG10183,DRSC14203,0.7,-0.4,0.78
CG14177 (retired record),DRSC10176,-0.13,0.31,-0.62
CG17571,DRSC01768,-0.35,0.22,-0.44
CG17571,DRSC03755,0.56,0.82,0.35
SmydA-2,DRSC10296,-0.79,0.27,1.01
gudu,DRSC02820,0.99,-0.04,1.76
CG11437,DRSC11659,-0.11,0.08,2.22
CG42232,DRSC15018,-0.44,0.08,0.44
CG42232,DRSC15019,0.31,0.32,-0.73
SdhA,DRSC07547,0.46,0.1,0.69
TwdlK,DRSC16045,-1.6,-4.26,-1.45
BomT3,DRSC13537,-0.09,1.94,0.56
BomT3,DRSC15871,1.07,-0.84,0.72
Ilp7,DRSC17895,0.35,0.4,-0.19
sif,DRSC08759,-0.06,-0.04,-0.04
sif,DRSC11395,1.6,1.07,-0.55
sif,DRSC22065,-0.08,-0.28,-0.45
sif,DRSC22828,1.2,0.44,0.61
CG42676,DRSC08227,0.67,-0.01,0.19
CG42676,DRSC08392,-0.51,-0.21,1.01

4 entries from above, limited to “replicate 1, z-score of dpERK under basal conditions”.
CG4301 [DRSC19886] = 1.19
CG11983 [DRSC14458] = 0.26
Jasper [DRSC16352] = 0.1
CtBP [DRSC16617] = 0.36
